Results are given in words; binding and its absence hold for the method and conditions named. Some results given as binding are weak or reduced against the parent protein; the word gives no strength.

Sequences of proteins named here, by UniProt entry; tags and fusion partners are left off. Residues count along the entry.
UniProt P10721, residues 26-976: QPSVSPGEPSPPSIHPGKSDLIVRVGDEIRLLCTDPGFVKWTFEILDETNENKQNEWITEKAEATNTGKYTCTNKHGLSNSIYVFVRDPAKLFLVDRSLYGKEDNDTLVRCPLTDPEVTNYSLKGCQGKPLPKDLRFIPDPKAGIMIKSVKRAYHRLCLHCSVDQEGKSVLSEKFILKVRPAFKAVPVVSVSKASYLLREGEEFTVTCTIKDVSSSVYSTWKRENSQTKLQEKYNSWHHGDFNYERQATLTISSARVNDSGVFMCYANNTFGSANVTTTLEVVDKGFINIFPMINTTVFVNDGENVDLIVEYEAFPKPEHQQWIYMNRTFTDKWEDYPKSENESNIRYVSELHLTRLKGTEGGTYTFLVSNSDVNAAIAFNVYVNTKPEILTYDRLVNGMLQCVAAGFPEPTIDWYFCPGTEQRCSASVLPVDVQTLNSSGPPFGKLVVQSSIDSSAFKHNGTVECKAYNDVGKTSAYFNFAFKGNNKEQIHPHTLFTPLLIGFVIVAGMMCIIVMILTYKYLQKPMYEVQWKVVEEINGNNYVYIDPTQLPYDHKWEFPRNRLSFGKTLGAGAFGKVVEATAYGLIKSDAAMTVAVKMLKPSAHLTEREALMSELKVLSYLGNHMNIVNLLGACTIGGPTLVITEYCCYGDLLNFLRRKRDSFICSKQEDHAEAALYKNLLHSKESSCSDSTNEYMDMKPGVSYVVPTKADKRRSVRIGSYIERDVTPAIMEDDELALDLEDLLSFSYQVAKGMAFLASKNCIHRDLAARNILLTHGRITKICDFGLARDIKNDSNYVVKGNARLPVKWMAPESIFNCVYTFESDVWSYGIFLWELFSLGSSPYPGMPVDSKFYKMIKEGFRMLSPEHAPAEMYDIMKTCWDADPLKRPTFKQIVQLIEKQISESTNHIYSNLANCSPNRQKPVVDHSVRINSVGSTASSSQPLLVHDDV

In this assay the target is wild type human CD117 protein (human) (UniProt P10721). In words: flow cytometry on HEK-293T cells transfected with WT CD117. For orientation: In flow cytometry, cells or beads pass a laser one at a time.

B1: JSP191 (antibody, human IgG1, kappa, N297Q, V domains shown)
VH: QVQLVQSGAEVKKPGASVKVSCKASGYTFTSYNMHWVRQAPGQGLEWMGVIYSGNGDTSYNQKFKGRVTITADKSTSTAYMELSSLRSEDTAVYYCARERDTRFGNWGQGTLVTVSS
VL: DIVMTQSPDSLAVSLGERATINCRASESVDIYGNSFMHWYQQKPGQPPKLLIYLASNLESGVPDRFSGSGSGTDFTLTISSLQAEDVAVYYCQQNNEDPYTFGGGTKVEIKR
In the case of B1, the binding result is “binds”.

Values taken from US20240409603A1.
